The supplement of paper PMC5949888
± gives the standard deviation of the averaged measurements. Most values lie at the floor of the assay. Slopes are relative: functional sequences can read slightly below zero.

These substances were tested on Saccharomyces cerevisiae PS128 hsf1 delta, HSF1(1-493) fusion (assay: growth estimate (transactivation domain function in HSF1 fusion, heat-shock survival) (a.u. (slope of normalised read count over time)); higher = stronger growth at 37°C, i.e. more transactivation activity). Details: library: random library.
Protocol: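 Random 60-nt DNA library encoding peptides of up to 20 aa, fused to the C-terminus of yeast HSF1 residues 1-493 (C-terminal TAD deleted) and expressed from the native HSF1 promoter on a CEN plasmid in hsf1-deleted S. cerevisiae PS128. Cells were selected at 37°C on -trp 5-FOA plates for 0, 2, 4, 6 and 8 days and amplicons were sequenced. Growth estimate is the slope of a robust linear fit of total-sum-normalised read counts (normalised to the first time point) over time, using at least 2 replicates. Sequences are classed functional (TAD activity) above a threshold of -0.13, set from stop-codon control sequences.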

Row | Substance | growth estimate
1 | CNRTTTRRRRYI | < -0.25
2 | GLIRGHIWPV | < -0.25
3 | LRVIEIVAVLGAVPV | < -0.25
4 | VLY | < -0.25
5 | PDSLNLFDFSRPWTALSPWW | < -0.25
6 | YWRVGYTLHRTSVSSLFSNN | < -0.25
7 | IPDVEGGDARSSTSILLTAA | < -0.25
8 | AYVVLRYSTFALQ | < -0.25
9 | GGAELRSPQRGQMGPGGTPP | < -0.25
10 | IQRR | < -0.25
11 | PRKRTGKPSMTR | < -0.25
12 | RAVCGSEQAG | < -0.25
13 | QLSVVNPEKSSQGSLHKTSP | < -0.25
14 | VNGTWMNRAVKGVQINRLSS | < -0.25
15 | YVTRVSRLFKFFRQDC | < -0.25
16 | SLYAGKYGQDNAEPSLRACC | < -0.25
17 | TPCQASITLLGPRTSGPRVH | < -0.25
18 | FGPKMQQRDIKANLQLVSID | < -0.25
19 | HSPCEQSTGSESFPRGTGSA | < -0.25
20 | NTLEHG | < -0.25
21 | LWR | < -0.25
22 | FECHTVDMSEDRARRK | < -0.25
23 | LFTPPRSSAPLDEV | < -0.25
24 | SGKEGLVVTLY | < -0.25

6 records picked at random from the list so far:
Row | Substance | growth estimate
18 | FGPKMQQRDIKANLQLVSID | < -0.25
1 | CNRTTTRRRRYI | < -0.25
4 | VLY | < -0.25
23 | LFTPPRSSAPLDEV | < -0.25
10 | IQRR | < -0.25
7 | IPDVEGGDARSSTSILLTAA | < -0.25

More results

Row | Substance | growth estimate
25 | GTVATMMCA | < -0.25
26 | GPRVPWTPTEIRRSRLFSST | -0.0641
27 | KLCGV | < -0.25
28 | HLWRTW | < -0.25
29 | FATLVTLPS | < -0.25
30 | KHLH | < -0.25
31 | VDCFQPPTYSIGSLSGAACG | < -0.25
32 | LPTRGSGPHKRAEGGSGHNP | < -0.25
33 | LYCLYWPRQLATTGGFLRRR | < -0.25
34 | PVM | < -0.25
35 | RLPLARSADRNRGLFVCTVS | < -0.25
36 | CEESTSCMARCECEPLMRNG | < -0.253
37 | KHSRIWSPRQASGLGSLGRQ | < -0.25
38 | PVRGLGGVASVPF | < -0.25
39 | STRIHD | < -0.25
40 | LSTEYEIRCQSRMSACRILD | < -0.25
41 | FDHSIPSHKKRTDMISGSII | < -0.25
42 | SDRLPYCGVVPVNVTTRIQG | -0.226
43 | RLDGARSRTRWPFRVYNYST | < -0.25
44 | KGGYDLPLQRGGNASTKVDS | < -0.25
45 | SHGGVNGL | < -0.25
46 | GSRASTRRCVWHRTQQPCTR | < -0.25
47 | GSEEV | < -0.25
48 | SNPFPATHWYRPLIF | < -0.25

Row | Substance | growth estimate
49 | SMKRLFLLAPTANCIKHDGT | < -0.25
50 | LLDSEAGS | < -0.25
51 | ECI | < -0.25
52 | YSERIIPEPPRAECPPGTAQ | < -0.25
53 | ARVKTS | < -0.25
54 | VSDSSAHRLEHCDILKR | < -0.25
55 | YLT | < -0.25
56 | RRFVGQEVRCVQPEITHVIA | -0.248
57 | DADRQRDPYRALDEQSRGGA | < -0.25
58 | WLSVCLRANSKRVGPVPPVA | < -0.25
59 | SRHAFGGVRKILEAPTGGPG | < -0.25
60 | WPTRAKIKRLL | < -0.25
61 | TSVILERPA | < -0.25
62 | PGRYSVKKYTSAKPE | < -0.25
63 | GSKAVGSVSPMIEHVIELAS | < -0.25
64 | RRFVLSSVQETLAWFKCIRR | < -0.25
65 | QTRGE | < -0.25
66 | TGSIMVRLCWPFLGMPCYHL | < -0.25
67 | LDFRF | < -0.25
68 | KETSNSKVRGSTRGSYSRPV | < -0.25
69 | LSTSARPVGCWR | < -0.25
70 | NSRIGGWRFLAKSPVTESSP | < -0.25
71 | SIA | < -0.25
72 | PSKGLG | < -0.25

Row | Substance | growth estimate
73 | PAIDKAMGRFPASIPTACSQ | < -0.25
74 | EHALFVD | < -0.25
75 | SPPNIVKRFGIVTRVWACRR | -0.246
76 | PTSEQTC | < -0.25
77 | DTTIKARCSWIGTRCYMQSR | < -0.25
78 | THLVSLFFLSGKRPVDRECG | < -0.25
79 | GRRTRMIVVCADSYTLGAGR | < -0.25
80 | SDACTSVRASRKPM | < -0.25
81 | GIWPGASEGFGSGD | < -0.25
82 | LRLNGFGFQHHDPLARGVIG | < -0.25
83 | FDCTVLST | < -0.25
84 | RTVCASRCREGFRRFAWMEH | < -0.25
85 | ASDIRGSGPECHQLLPFVAH | < -0.25
86 | RVLKTCLGRDRSSREDRDSV | < -0.25
87 | RSQILCYWTE | < -0.25
88 | VYRRTTRRRPRGH | < -0.25
89 | GKAGGW | < -0.25
90 | GCIAPTVGVLNGMVRTPIAV | < -0.25
91 | APWLTSAATPVRQGG | < -0.25
92 | RCIQSSNCSNRCSTGQRS | < -0.25
93 | FDQALLSDITSANHPSSVNP | < -0.25
94 | SGIQAN | < -0.25
95 | CIVSLGYG | < -0.25
96 | FPRRSDPRG | < -0.25

Row | Substance | growth estimate
97 | TMKAVEGVVTLTDFGVLEVK | < -0.25
98 | RVGKDW | < -0.25
99 | LKRIRIALAINSARDKGPYS | < -0.25
100 | KSIMTT | < -0.25
101 | VVCERLPESTEYCAFSYTMG | -0.18
102 | VFKHHILVP | < -0.25
103 | QALHV | < -0.25
104 | TVGEAWI | < -0.25
105 | VAWRRARRRKLEISSYMSAI | < -0.25
106 | GVLAEPPLYWMITPSHEQAK | < -0.25
107 | NYWRE | -0.199
108 | PFHLAVAGCRRSSQYFLQLC | < -0.25
109 | LILCRRIDPRIRNDHSMAVH | < -0.25
110 | NVAGKKLGNSTAEIHHRIRQ | < -0.25
111 | VSERRSVSTVLRMRRRRFVP | < -0.25
112 | VKAWYSPRYA | < -0.25
113 | GRNLPPADAGWPRTRRSSLV | < -0.25
114 | RGVVHKVSV | < -0.25
115 | VHIRPVLVIARRLRVFRFSG | < -0.25
116 | VLLVERLRPIGW | < -0.25
117 | LCLGSGGKENKMTIPWNQTT | < -0.25
118 | SNCVRVIIFVTRTGSTKPRR | < -0.25
119 | RRDRTYHSTGVMERLALRLF | < -0.25
120 | YALGDEGQTCFGCEGYTSSP | < -0.25

Row | Substance | growth estimate
121 | PPERSTLRGLWVAPGYPDVA | < -0.25
122 | GPLAVRLKRQPPA | < -0.25
123 | NCDWDGWG | -0.23
124 | PNGSLVQSHFVWTLSLLIIV | < -0.25
125 | GHGYDRTAGESGD | < -0.25
126 | FTSLRPHMPTFHSRVCTAGR | < -0.25
127 | GENDHYRAPHFTTNGVTVLQ | < -0.25
128 | GIMRLQPIKYAGYIT | < -0.25
129 | RLGIF | < -0.25
130 | HYRIGQIPRAHGMCSESRHL | < -0.25
131 | PSVRLDISAIKTLPALHARP | < -0.25
132 | NCSM | < -0.25
133 | YCFL | < -0.25
134 | GQTNDPSVHPRRVVVDRIQH | < -0.25
135 | LKLLCEPPGGQRDTFRGARP | < -0.25
136 | SGTLLGRASTEARMRRNIQS | < -0.25
137 | ATNGVGPG | < -0.25
138 | VDHPTTKVRAWRDHPHWATR | < -0.25
139 | AGHILGAQSTNRSSGWPVAS | < -0.25
140 | VLPSTVQS | < -0.25
141 | DTGGTTGAIFCRAFREV | -0.246
142 | EPAIDGG | < -0.25
143 | NPGAPVRLASGVA | < -0.25
144 | ATS | -0.247 ± 0.0053

Row | Substance | growth estimate
145 | AAWSKYPAAP | < -0.25
146 | CFGLKVWRQSHLSL | < -0.25
147 | FPYYGLISQAMDGTAMPISN | < -0.25
148 | VVEGGSFEQS | < -0.25
149 | WKRSPERRMVGVRRLKSQVT | < -0.25
150 | RMLVDLQLNRITYIDGLTHQ | -0.24
151 | VQARMPDLSRHKISSGLALG | < -0.25
152 | KYAAVQRRE | < -0.25
153 | RCGVI | < -0.25
154 | VGQQPEHL | < -0.25
155 | GNYNARNGRAVRTF | < -0.25
156 | CHPYSPRVIWSLTGILGVAR | < -0.25
157 | SCPQRFKLVLPCVATRIDVS | < -0.25
158 | ISGGGVSLLFLNQDR | < -0.25
159 | LFQLTKAQGCVR | < -0.25
160 | KRFRV | < -0.25
161 | VNFKSTHGEQYGESGTSVQC | < -0.25
162 | LHSTKLAG | < -0.25
163 | FLFAPTLA | -0.243
164 | CAVSSDQRVAVPSCSVRRVA | < -0.25
165 | DRLTCIESNRGPGITD | < -0.25
166 | TFRKAKESGILV | < -0.25
167 | VSQTQRLS | < -0.25
168 | GSRGCPY | -0.236

Looked up above.
LFTPPRSSAPLDEV – growth estimate: < -0.25
RLDGARSRTRWPFRVYNYST – growth estimate: < -0.25

(next part)

Row | Substance | growth estimate
169 | SGVTVAAGCKGELSAT | < -0.25
170 | QLLRSNTLRP | < -0.25
171 | ESPTNGVWLGLDHCYSSPSA | 0.0798
172 | KIRASTFGMSLCEYFGASQL | < -0.25
173 | TWQKGVNSTSIAAAGFGKAD | < -0.25
174 | VLHGGPQGGTASLGRPSGLL | < -0.25
175 | LLEPRIWGAGIVTKC | < -0.25
176 | VSLGVKLFNGKGCKWVQGTV | < -0.25
177 | MDWGLVLGY | < -0.25
178 | HFGTIPL | < -0.25
179 | VQGVGGGPLKPGSRFPVREG | < -0.25
180 | NFRDAIGHGGTKSGSAHFPA | < -0.25
181 | ELGSLFHTESLVLSDC | -0.0491
182 | VVAKILCSTPGEILTVGRVR | < -0.25
183 | SRGIRDVTPESGIGVELLPK | < -0.25
184 | RVGSPRSLIGV | < -0.25
185 | EMKAISRGTPHHLGHG | < -0.25
186 | SHIVAFRHLGRVASCRVH | < -0.25
187 | PILLTKLWVANASERLVVYW | < -0.25
188 | TRTKNDAGP | -0.246
189 | NSTLIIT | < -0.25
190 | SPCRIWSREENAIGLLGGRS | < -0.25
191 | YSRLGSVFLLSTIDVSVNRD | < -0.25
